This series can be described thus: Ingredients quantitative analysis of Pinus densiflora wood chips soaked one week in saturated reagent solutions. The class given is physicochemical.
[1] abbreviates: Pinus densiflora chip 30x25x5 mm, soaked one week in saturated solution, Kjeldahl.
Setting [2] is: Pinus densiflora chip, soaked one week in saturated solution.
Setting [3] is: Pinus densiflora chip, soaked one week.
Setting [4] is: Pinus densiflora chip, soaked one week, atomic absorption or pH-meter.
Where [5] appears, read: Pinus densiflora chip, soaked one week, Vanadate method.

Where two headings read alike, the source gives them in different places.

As for `N.N.O=S(=O)(O)O` [(NH4)2SO4], the Nitrogen ppm under setting [1] is given as 107,240 ppm. Moreover, the “Nitrogen content(%)” value under setting [2] was determined as 10.7%.
Regarding `O=P(O)(O)O` [K2HPO4, Potassium phosphate], the “Phosphorous content(%)” value is 2.1% and the Phosphorous ppm is given as 206 ppm.
For `O=S(=O)([O-])[O-].[K+].[K+]` [K2SO4], under setting [3], the “Potassium content(%)” value worked out at 3.0%. The compound further yielded a Potassium ppm under setting [4] of 304 ppm.
As for `O=P([O-])([O-])[O-].[K+].[K+].[K+]` [K3P04], under setting [3], the “Phosphorous content(%)” value worked out at 1.3%. Besides, the Phosphorous ppm under setting [5] is 129 ppm.
With `[Cl-].[K+]` [KCl, potassium chloride], the “Potassium content(%)” value is recorded as 8.6% and the Potassium ppm was determined as 862 ppm.
Take `O=P([O-])(O)O.[K+]` [KH2PO4]: the “Phosphorous content(%)” value under setting [3] is on record as 1.5%. Moreover, the Phosphorous ppm under setting [5] came to 149 ppm.
As to `O=[N+]([O-])[O-].[K+]` [KNO3], the Nitrogen ppm under setting [1] is 51,520 ppm. Further, the “Potassium content(%)” value under setting [3] turned out to be 6.5%. Besides, the “Nitrogen content(%)” value under setting [2] worked out at 5.2%. The compound further showed a Potassium ppm under setting [4] of 652 ppm.
With `N.O=P(O)(O)O` [NH4H2PO4], under setting [1], the Nitrogen ppm was 68,600 ppm. Further, the “Phosphorous content(%)” value under setting [3] is recorded as 1.5%. Under setting [2], the “Nitrogen content(%)” value is given as 6.9%. This compound also came in with a Phosphorous ppm under setting [5] of 152 ppm.
In the case of `O.O.O=P([O-])(O)O.[Na+]` [NaH2PO4.2H2O], under setting [3], the “Phosphorous content(%)” value is 1.8%. This compound registered a Phosphorous ppm under setting [5] of 183 ppm.
In the case of `O=N[O-].[Na+]` [NaNO2], the “Nitrogen content(%)” value is 5.6% and the Nitrogen ppm was 55,720 ppm.

Source of the values: patent US20060135365A1, “Wood chip capsule for fertilizer, agriculture pesticides and plant growth regulator, process and apparatus for producing the same” (priority 2002, published 2006).
